{"source": "PubChem BioAssay AID1259425 (University of Nebraska Medical Center, 2018)", "screen": "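Compare each knockdown with KSR1 silencing using changes in marker transcripts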 (primary screen)", "system": "HCT116 human colon cancer cells", "reagents": "siRNA pool against human genes, 50 nM siRNA", "measurement": "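After 50 nM siRNA pool, branched-DNA assay measures six marker transcripts per well, minus blank, normalised to the geometric mean of two housekeeping transcripts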", "scale": "BNIP3L mRNA: higher = more BNIP3L transcript after knockdown", "note": "The whole screen tested about 14,000 reagents; shown is an unselected part. Not all columns of the deposit are shown. The record does not give: the time to read-out."}
{"gene knocked down":"LBX1 (ladybird homeobox 1)","PubChem SID":"SID363997353","BNIP3L mRNA, set 1":0.0824}
{"gene knocked down":"PRDX1 (peroxiredoxin 1)","PubChem SID":"SID363993743","BNIP3L mRNA, set 1":0.0944}
{"gene knocked down":"DYRK4 (dual specificity tyrosine phosphorylation regulated kinase 4)","PubChem SID":"SID363994906","BNIP3L mRNA, set 1":0.0624}
{"gene knocked down":"SOD3 (superoxide dismutase 3)","PubChem SID":"SID363994244","BNIP3L mRNA, set 1":0.0877}
{"gene knocked down":"EDRF1 (erythroid differentiation regulatory factor 1)","PubChem SID":"SID363999602","BNIP3L mRNA, set 1":0.153}
{"gene knocked down":"ZBED2 (zinc finger BED-type containing 2)","PubChem SID":"SID364002832","BNIP3L mRNA, set 1":0.122}
{"gene knocked down":"ZBED8 (zinc finger BED-type containing 8)","PubChem SID":"SID364002319","BNIP3L mRNA, set 1":0.0643}
{"gene knocked down":"NLE1 (notchless homolog 1)","PubChem SID":"SID364000777","BNIP3L mRNA, set 1":0.296}
{"gene knocked down":"NFU1 (NFU1 iron-sulfur cluster scaffold)","PubChem SID":"SID363999657","BNIP3L mRNA, set 1":0.165}

Reformatted: 4 of the entries above
gene knocked down	PubChem SID	BNIP3L mRNA, set 1
LBX1 (ladybird homeobox 1)	SID363997353	0.0824
PRDX1 (peroxiredoxin 1)	SID363993743	0.0944
DYRK4 (dual specificity tyrosine phosphorylation regulated kinase 4)	SID363994906	0.0624
SOD3 (superoxide dismutase 3)	SID363994244	0.0877

The results go on:
{"gene knocked down":"DNM3 (dynamin 3)","PubChem SID":"SID363999578","BNIP3L mRNA, set 1":0.304}
{"gene knocked down":"ZNF137P (zinc finger protein 137, pseudogene)","PubChem SID":"SID363994540","BNIP3L mRNA, set 1":0.0542}
{"gene knocked down":"FZR1 (fizzy and cell division cycle 20 related 1)","PubChem SID":"SID363999991","BNIP3L mRNA, set 1":0.109}
{"gene knocked down":"POU4F2 (POU class 4 homeobox 2)","PubChem SID":"SID363995546","BNIP3L mRNA, set 1":0.0953}
{"gene knocked down":"POPDC2 (popeye domain cAMP effector 2)","PubChem SID":"SID364002361","BNIP3L mRNA, set 1":0.0808}
{"gene knocked down":"ALG10 (ALG10 alpha-1,2-glucosyltransferase)","PubChem SID":"SID364004212","BNIP3L mRNA, set 1":0.13}
{"gene knocked down":"ALG2 (ALG2 alpha-1,3/1,6-mannosyltransferase)","PubChem SID":"SID364004315","BNIP3L mRNA, set 1":0.091}
{"gene knocked down":"OGN (osteoglycin)","PubChem SID":"SID363998581","BNIP3L mRNA, set 1":0.151}
{"gene knocked down":"VAMP8 (vesicle associated membrane protein 8)","PubChem SID":"SID363994827","BNIP3L mRNA, set 1":0.13}
{"gene knocked down":"IQGAP2 (IQ motif containing GTPase activating protein 2)","PubChem SID":"SID363997421","BNIP3L mRNA, set 1":0.0862}
{"gene knocked down":"GSG1 (germ cell associated 1)","PubChem SID":"SID364003578","BNIP3L mRNA, set 1":0.186}
{"gene knocked down":"DRD3 (dopamine receptor D3)","PubChem SID":"SID363992086","BNIP3L mRNA, set 1":0.0488}
{"gene knocked down":"ABCA1 (ATP binding cassette subfamily A member 1)","PubChem SID":"SID363996403","BNIP3L mRNA, set 1":0.0657}
{"gene knocked down":"ELOVL2 (ELOVL fatty acid elongase 2)","PubChem SID":"SID364000514","BNIP3L mRNA, set 1":0.143}
{"gene knocked down":"OR12D3 (olfactory receptor family 12 subfamily D member 3)","PubChem SID":"SID364003526","BNIP3L mRNA, set 1":0.129}
{"gene knocked down":"CALB1 (calbindin 1)","PubChem SID":"SID363995873","BNIP3L mRNA, set 1":0.233}
{"gene knocked down":"ANP32D (acidic nuclear phosphoprotein 32 family member D)","PubChem SID":"SID363998289","BNIP3L mRNA, set 1":0.0908}
{"gene knocked down":"ANKRD13C-DT (ANKRD13C divergent transcript)","PubChem SID":"SID363997800","BNIP3L mRNA, set 1":0.077}
{"gene knocked down":"PEX13 (peroxisomal biogenesis factor 13)","PubChem SID":"SID363993786","BNIP3L mRNA, set 1":0.0664}
